# PubChem BioAssay AID1259424 – University of Nebraska Medical Center – 2018
# Test: 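Seek colon cancer survival genes behaving like KSR1, using a six-gene signature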 (primary screen)
# Cell system: human HCT116 colon cancer cells
# Reagents: siRNA pool against human genes, 50 nM
# Detection: 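Six signature mRNAs by branched-DNA multiplex assay, scaled to two housekeeping genes and non-targeting median, log2; matched to mean KSR1 knockdown profile by Pearson correlation and euclidean distance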
# Scale: mean correlation with KSR1 profile and KSR1 correlation: higher = expression change more like KSR1 knockdown; mean distance from KSR1 profile: higher = expression change less like KSR1 knockdown
# This is an unselected part of about 14,000 deposited reagents. 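Higher correlation or smaller distance means closer resemblance to KSR1 loss; control wells, including KSR1 knockdowns, recur on many plates.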 Not given: the time to read-out.
target gene,mean correlation with KSR1 profile,mean distance from KSR1 profile,"KSR1 correlation, replicate 1","KSR1 correlation, replicate 2","KSR1 correlation, replicate 3"
ZNF37A (zinc finger protein 37A),0.241,3.93,0.47,0.304,0.115
TARBP1 (tRNA guanosine 2 -O-methyltransferase TARBP1),0.732,1.63,0.462,0.818,0.697
RNF41 (ring finger protein 41),-0.0354,1.71,-0.0282,0.0222,-0.089
BCL7A (BAF chromatin remodeling complex subunit BCL7A),0.638,1.46,0.779,0.56,0.432
DAPP1 (dual adaptor of phosphotyrosine and 3-phosphoinositides 1),0.205,1.71,-0.0625,0.236,0.124
CWC22 (CWC22 spliceosome associated protein),-0.398,3.05,-0.335,-0.258,-0.318
BHLHE40 (basic helix-loop-helix family member e40),0.277,3.31,-0.0303,0.522,0.445
DNAAF5 (dynein axonemal assembly factor 5),0.236,1.5,0.265,0.0237,0.113
PRG4 (proteoglycan 4),-0.0468,1.99,-0.175,-0.051,-0.0258
PEX26 (peroxisomal biogenesis factor 26),-0.727,3.13,-0.605,-0.696,-0.769
TRIM10 (tripartite motif containing 10),-0.0812,1.59,-0.0481,-0.213,0.0551
CDKN2AIP (CDKN2A interacting protein),0.0136,1.51,-0.155,0.122,-0.0566
ATP11A (ATPase phospholipid transporting 11A),-0.499,2.66,-0.381,-0.587,-0.401
"PSMD9 (proteasome 26S subunit, non-ATPase 9)",-0.444,2.44,-0.265,-0.609,-0.425
TMEM14A (transmembrane protein 14A),-0.648,2.34,-0.657,-0.654,-0.739
TNFRSF10D (TNF receptor superfamily member 10d),-0.0448,2.07,-0.0328,-0.085,-0.046
LCN1 (lipocalin 1),-0.0498,1.3,-0.434,-0.114,0.121
SMPD1 (sphingomyelin phosphodiesterase 1),0.354,2.62,0.265,0.4,0.379
TAF7L (TATA-box binding protein associated factor 7 like),-0.16,2.7,-0.145,-0.164,0.0421
ERRFI1 (ERBB receptor feedback inhibitor 1),-0.0678,1.73,-0.155,-0.233,-0.035
FARSA (phenylalanyl-tRNA synthetase subunit alpha),-0.388,3.85,-0.328,-0.275,-0.458
VPS28 (VPS28 subunit of ESCRT-I),-0.616,2.66,-0.652,-0.515,-0.301
SLCO2A1,0.683,1.17,0.771,0.448,0.641
KAZALD1 (Kazal type serine peptidase inhibitor domain 1),0.348,1.47,0.53,-0.0115,0.181
EED (embryonic ectoderm development),-0.0313,1.96,-0.0493,-0.139,0.131
BAG6 (BAG cochaperone 6),-0.0678,2.89,0.0622,-0.0483,-0.136
CD2BP2 (CD2 cytoplasmic tail binding protein 2),-0.176,3.09,-0.225,-0.204,-0.248
UMPS (uridine monophosphate synthetase),-0.683,3.13,-0.519,-0.828,-0.679
PLRG1 (pleiotropic regulator 1),-0.478,1.72,-0.223,-0.376,-0.773
STXBP2 (syntaxin binding protein 2),-0.466,1.78,-0.562,-0.612,-0.184
HNRNPA0 (heterogeneous nuclear ribonucleoprotein A0),-0.0525,1.69,0.0216,0.131,-0.24
OGT (O-linked N-acetylglucosamine (GlcNAc) transferase),-0.117,2.23,-0.157,-0.0242,-0.246
AK1 (adenylate kinase 1),-0.118,2.53,-0.0771,-0.149,-0.264
MEN1 (menin 1),0.675,0.966,0.677,0.378,0.532
MYCT1 (MYC target 1),0.413,2.5,0.304,0.341,0.368
CCL19 (C-C motif chemokine ligand 19),0.28,1.25,0.506,0.0201,0.342
N4BP2L1 (NEDD4 binding protein 2 like 1),0.104,1.27,0.195,0.00884,0.0308
WLS (Wnt ligand secretion mediator),0.316,1.75,0.359,0.331,0.346
"SPTB (spectrin beta, erythrocytic)",-0.386,1.3,-0.403,-0.0849,-0.167
INTS15 (integrator complex subunit 15),-0.3,2.91,-0.43,-0.446,-0.0307
CDCA3 (cell division cycle associated 3),0.63,3.18,0.527,0.688,0.604
ICAM2 (intercellular adhesion molecule 2),0.202,0.834,-0.275,0.0461,0.602
RDH11 (retinol dehydrogenase 11),-0.838,3.91,-0.81,-0.684,-0.704
PGAM2 (phosphoglycerate mutase 2),-0.303,2.69,-0.36,-0.458,-0.43
AMN (amnion associated transmembrane protein),0.144,1.47,0.18,0.109,0.176
ATG9A (autophagy related 9A),-0.169,2.23,-0.243,-0.356,-0.305
PPARGC1A (PPARG coactivator 1 alpha),-0.0162,2.85,0.226,0.233,0.162
XAB2 (XPA binding protein 2),0.305,5.02,0.18,0.37,-0.418
"SMN2 (survival of motor neuron 2, centromeric)",-0.16,1.72,0.0182,-0.24,0.087
LRP2 (LDL receptor related protein 2),0.548,2.07,0.529,0.561,0.606
